From the supplement of paper PMC10849652
The list shows a part of the results.

Amino acid sequences for entries named in this document (tags omitted). A change or cut given only in a name is not applied to a line headed by its entry.
UniProt Q9BYX2: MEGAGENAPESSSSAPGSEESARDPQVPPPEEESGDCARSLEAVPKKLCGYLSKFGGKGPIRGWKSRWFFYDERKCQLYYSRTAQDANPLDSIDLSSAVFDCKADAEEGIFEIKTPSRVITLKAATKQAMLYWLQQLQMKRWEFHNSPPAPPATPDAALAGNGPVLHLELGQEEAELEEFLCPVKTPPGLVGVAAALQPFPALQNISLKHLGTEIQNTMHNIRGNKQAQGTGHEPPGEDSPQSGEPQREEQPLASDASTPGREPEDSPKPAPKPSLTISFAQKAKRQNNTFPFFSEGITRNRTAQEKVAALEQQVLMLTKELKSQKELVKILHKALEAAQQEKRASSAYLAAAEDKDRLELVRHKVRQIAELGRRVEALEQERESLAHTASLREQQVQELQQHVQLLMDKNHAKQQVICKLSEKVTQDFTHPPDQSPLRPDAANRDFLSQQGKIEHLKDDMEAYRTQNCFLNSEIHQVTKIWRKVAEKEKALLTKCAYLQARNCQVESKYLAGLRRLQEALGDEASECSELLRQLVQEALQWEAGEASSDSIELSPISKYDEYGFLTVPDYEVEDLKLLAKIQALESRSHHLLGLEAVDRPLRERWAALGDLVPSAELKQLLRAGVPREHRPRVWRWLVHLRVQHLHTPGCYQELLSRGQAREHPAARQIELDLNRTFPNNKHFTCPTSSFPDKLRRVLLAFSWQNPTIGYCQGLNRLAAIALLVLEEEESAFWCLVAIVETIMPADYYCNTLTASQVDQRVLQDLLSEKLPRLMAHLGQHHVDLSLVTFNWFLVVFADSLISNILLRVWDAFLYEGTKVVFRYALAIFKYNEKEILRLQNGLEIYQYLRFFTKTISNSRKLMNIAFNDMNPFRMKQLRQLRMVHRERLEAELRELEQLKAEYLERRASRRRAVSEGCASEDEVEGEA
UniProt Q9Y6I9: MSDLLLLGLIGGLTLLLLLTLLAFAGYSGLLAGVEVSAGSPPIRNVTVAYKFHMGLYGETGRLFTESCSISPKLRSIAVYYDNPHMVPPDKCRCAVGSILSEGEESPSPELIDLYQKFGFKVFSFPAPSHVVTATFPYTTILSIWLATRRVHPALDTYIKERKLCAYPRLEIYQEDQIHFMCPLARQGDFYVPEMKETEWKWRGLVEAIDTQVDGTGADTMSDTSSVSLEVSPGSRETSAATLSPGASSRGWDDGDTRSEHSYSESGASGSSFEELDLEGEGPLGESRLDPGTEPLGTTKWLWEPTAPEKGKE
UniProt Q92844: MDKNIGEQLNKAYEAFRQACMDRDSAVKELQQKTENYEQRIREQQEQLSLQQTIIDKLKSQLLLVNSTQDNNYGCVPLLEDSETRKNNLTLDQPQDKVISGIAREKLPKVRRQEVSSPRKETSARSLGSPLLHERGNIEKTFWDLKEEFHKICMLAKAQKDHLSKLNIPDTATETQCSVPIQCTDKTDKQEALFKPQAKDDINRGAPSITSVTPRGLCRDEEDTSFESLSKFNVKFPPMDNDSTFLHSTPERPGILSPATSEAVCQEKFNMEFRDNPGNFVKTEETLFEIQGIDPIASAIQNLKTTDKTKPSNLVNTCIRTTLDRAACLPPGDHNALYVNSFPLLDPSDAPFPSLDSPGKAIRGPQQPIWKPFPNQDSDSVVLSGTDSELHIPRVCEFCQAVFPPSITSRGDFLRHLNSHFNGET
UniProt Q96BZ9: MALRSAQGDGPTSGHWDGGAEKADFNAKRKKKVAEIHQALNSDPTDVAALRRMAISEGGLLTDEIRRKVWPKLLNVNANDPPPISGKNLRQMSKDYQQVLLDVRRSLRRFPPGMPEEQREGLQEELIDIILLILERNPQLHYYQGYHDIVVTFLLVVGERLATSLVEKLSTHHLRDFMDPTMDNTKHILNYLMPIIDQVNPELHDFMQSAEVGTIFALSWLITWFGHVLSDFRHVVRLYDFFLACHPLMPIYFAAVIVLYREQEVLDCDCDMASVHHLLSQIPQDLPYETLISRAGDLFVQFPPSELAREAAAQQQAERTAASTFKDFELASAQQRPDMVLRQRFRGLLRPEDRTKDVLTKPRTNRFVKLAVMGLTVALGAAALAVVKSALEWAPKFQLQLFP
UniProt Q9Y6J9: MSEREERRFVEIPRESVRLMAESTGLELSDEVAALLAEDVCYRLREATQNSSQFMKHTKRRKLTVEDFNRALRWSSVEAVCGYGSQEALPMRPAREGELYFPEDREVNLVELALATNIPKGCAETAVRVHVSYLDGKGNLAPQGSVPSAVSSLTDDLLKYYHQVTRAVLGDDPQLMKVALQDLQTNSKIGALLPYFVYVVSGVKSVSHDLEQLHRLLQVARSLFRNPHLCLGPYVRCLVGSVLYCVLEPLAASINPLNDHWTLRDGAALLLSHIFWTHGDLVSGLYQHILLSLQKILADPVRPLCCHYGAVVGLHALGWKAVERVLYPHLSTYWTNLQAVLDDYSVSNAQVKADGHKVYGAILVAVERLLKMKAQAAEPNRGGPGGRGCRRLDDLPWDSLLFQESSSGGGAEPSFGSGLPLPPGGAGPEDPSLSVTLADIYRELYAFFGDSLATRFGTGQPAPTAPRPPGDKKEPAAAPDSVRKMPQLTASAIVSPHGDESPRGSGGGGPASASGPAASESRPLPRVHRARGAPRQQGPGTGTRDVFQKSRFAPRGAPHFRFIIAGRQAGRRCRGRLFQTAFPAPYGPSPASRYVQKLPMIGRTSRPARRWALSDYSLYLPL
UniProt Q96EI5: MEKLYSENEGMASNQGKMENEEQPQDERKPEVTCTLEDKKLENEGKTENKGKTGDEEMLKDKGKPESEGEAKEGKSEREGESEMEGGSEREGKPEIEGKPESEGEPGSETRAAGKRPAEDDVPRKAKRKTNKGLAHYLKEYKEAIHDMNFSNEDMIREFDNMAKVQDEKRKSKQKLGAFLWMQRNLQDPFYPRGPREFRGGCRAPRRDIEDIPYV
UniProt Q9NU19: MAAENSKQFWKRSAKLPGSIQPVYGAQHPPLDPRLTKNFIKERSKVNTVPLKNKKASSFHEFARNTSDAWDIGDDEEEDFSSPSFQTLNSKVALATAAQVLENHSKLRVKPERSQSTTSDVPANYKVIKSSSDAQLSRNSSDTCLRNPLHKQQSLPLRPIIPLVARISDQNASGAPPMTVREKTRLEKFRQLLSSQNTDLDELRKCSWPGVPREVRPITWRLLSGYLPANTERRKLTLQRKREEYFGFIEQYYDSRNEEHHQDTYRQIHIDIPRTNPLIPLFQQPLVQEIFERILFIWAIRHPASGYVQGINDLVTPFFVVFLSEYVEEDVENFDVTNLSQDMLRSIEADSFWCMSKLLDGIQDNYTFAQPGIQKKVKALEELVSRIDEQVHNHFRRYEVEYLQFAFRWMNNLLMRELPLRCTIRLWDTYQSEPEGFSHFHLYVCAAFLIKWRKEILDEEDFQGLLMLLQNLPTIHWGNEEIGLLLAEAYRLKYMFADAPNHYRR
UniProt Q96BS2: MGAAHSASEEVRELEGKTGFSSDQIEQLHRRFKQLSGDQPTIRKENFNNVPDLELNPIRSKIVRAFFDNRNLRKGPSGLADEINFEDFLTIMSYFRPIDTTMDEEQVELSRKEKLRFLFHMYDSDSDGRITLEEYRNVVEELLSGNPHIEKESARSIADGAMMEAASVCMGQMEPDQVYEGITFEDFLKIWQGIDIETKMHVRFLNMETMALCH
UniProt Q9NZ01: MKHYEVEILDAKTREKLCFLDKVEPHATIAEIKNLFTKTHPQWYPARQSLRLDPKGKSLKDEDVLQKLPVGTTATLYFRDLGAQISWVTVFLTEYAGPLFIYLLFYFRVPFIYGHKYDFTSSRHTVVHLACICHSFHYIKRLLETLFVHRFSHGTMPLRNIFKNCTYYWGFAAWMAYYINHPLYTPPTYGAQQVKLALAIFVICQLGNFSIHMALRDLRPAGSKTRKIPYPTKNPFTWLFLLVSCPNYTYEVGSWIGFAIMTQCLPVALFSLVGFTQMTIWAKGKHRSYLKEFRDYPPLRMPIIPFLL
UniProt Q8NFU7: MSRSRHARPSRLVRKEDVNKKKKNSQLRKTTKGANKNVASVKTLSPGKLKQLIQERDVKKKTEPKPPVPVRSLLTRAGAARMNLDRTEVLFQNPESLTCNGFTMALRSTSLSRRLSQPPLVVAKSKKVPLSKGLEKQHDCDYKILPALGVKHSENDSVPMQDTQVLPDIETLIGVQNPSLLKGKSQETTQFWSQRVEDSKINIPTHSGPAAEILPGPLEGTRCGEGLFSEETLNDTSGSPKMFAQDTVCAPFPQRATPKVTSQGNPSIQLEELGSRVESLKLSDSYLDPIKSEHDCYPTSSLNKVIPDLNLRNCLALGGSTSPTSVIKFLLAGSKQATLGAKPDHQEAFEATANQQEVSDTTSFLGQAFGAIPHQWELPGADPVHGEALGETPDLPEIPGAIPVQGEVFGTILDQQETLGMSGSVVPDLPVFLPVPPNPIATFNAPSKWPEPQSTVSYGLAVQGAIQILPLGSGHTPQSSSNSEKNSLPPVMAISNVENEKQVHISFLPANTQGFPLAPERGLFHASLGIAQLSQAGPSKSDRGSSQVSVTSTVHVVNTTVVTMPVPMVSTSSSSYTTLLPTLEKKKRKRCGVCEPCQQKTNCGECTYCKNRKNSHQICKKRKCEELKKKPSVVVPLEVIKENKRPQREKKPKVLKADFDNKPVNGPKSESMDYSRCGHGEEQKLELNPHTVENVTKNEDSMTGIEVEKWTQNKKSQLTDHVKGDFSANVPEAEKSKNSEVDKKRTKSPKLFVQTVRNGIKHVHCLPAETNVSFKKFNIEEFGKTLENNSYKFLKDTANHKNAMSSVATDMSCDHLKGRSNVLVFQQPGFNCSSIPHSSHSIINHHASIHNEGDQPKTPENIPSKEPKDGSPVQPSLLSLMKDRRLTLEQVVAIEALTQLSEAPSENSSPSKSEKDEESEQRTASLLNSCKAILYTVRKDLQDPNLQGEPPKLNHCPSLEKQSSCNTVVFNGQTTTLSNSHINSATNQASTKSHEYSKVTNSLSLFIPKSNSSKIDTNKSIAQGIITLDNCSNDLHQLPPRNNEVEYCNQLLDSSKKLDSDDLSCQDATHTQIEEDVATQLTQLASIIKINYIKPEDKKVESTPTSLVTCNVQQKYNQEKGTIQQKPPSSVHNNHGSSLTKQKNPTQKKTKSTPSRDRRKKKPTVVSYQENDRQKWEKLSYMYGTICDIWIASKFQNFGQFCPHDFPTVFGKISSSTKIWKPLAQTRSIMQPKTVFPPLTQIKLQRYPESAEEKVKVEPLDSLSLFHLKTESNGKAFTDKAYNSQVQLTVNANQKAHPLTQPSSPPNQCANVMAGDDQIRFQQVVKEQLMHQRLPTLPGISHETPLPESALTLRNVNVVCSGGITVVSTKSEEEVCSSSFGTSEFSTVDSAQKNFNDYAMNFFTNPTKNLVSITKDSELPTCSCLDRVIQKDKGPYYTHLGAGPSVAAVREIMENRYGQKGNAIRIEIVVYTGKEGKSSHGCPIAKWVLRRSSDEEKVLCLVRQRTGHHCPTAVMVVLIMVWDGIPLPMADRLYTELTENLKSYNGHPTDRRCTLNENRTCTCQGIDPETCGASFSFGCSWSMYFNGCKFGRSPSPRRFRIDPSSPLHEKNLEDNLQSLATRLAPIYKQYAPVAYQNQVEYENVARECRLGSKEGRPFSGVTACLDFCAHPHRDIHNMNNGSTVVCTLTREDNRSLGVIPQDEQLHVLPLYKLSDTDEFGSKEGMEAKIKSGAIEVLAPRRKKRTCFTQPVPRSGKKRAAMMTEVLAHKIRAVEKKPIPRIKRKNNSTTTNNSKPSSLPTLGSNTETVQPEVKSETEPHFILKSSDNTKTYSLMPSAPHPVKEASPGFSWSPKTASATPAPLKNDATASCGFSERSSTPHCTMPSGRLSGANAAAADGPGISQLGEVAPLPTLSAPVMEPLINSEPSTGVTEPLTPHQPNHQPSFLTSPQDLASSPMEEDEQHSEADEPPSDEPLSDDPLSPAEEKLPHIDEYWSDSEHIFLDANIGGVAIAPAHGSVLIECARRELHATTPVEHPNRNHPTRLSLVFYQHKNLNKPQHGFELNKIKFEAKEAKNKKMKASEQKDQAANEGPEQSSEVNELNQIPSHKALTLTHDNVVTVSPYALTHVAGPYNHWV
UniProt Q16594, whole entry, looked up: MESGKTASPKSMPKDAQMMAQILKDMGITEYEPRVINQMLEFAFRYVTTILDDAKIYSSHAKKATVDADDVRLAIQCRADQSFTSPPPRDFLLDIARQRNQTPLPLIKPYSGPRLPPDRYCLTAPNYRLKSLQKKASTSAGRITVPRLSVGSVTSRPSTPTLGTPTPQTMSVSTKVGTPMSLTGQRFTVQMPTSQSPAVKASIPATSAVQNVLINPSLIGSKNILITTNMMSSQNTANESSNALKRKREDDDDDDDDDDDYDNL

Each target was assayed with CS(=O)(=O)N1CCN(Cc2cc3nc(-c4cccc5[nH]ncc45)nc(N4CCOCC4)c3s2)CC1 [pictilisib] (assay: log2 fold change, soluble protein after heating vs DMSO (PISA); higher = thermal stabilisation; K562 lysate, 10 uM; active = over 0.2 and 3.5 SD of the protein, either way, in both replicates (recomputed)).
In short: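 Soluble protein was defined as the supernatant remaining after 21,000xg for 90 min, following pooling of heated aliquots and adjustment to 0.5% NP-40 at 4°C. Before that, crude K562 extract at 1 mg/mL protein in PBS pH 7.4 with 1 mM MgCl2 was treated with 10 μM compound for 30 min and heated for 3 min across 48°C-58°C. Quantification used TMTpro 16plex LC-MS/MS with channel sums equalised, and values are log-two fold changes in thermal stability relative to solvent controls from duplicates.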

Target	log2 fold change
TBC1D13 (UniProt Q9NVG8)	inactive: -0.005
TBC1D2 (UniProt Q9BYX2)	inactive: -0.031
TEX264 (UniProt Q9Y6I9)	inactive: 0.115
TANGO6 (UniProt Q9C0B7)	inactive: -0.002
TAOK3 (UniProt Q9H2K8)	inactive: -0.017
TANK (UniProt Q92844)	inactive: -0.03
TBC1D15 isoform 3 (UniProt Q8TC07)	inactive: -0.003
TEX10 (UniProt Q9NXF1)	inactive: -0.018
TBC1D20 isoform 3 (UniProt Q96BZ9)	inactive: -0.12
TBC1D2B (UniProt Q9UPU7)	inactive: 0.006
TAF6L (UniProt Q9Y6J9)	inactive: -0.091
TAOK1 (UniProt Q7L7X3)	inactive: -0.004
TBP (UniProt P20226)	inactive: -0.011
TARS2 (UniProt Q9BW92)	inactive: 0.003
TERF2 (UniProt Q15554)	inactive: 0.005
TBCK (UniProt Q8TEA7)	inactive: -0.12
TCEAL4 isoform 2 (UniProt Q96EI5)	inactive: -0.071

Target	log2 fold change
TBC1D22B (UniProt Q9NU19)	inactive: 0.012
TBC1D8B (UniProt Q0IIM8)	inactive: -0.072
TBC1D10A (UniProt Q9BXI6)	inactive: -0.024
TFIP11 (UniProt Q9UBB9)	inactive: 0.061
TFDP1 (UniProt Q14186)	inactive: -0.025
TEPSIN, A0A1B0GV70	inactive: 0.024
TESC (UniProt Q96BS2)	inactive: -0.122
TECR (UniProt Q9NZ01)	inactive: -0.032
TET1 (UniProt Q8NFU7)	inactive: -0.041
TFRC (UniProt P02786)	inactive: -0.005
TBCE (UniProt Q15813)	inactive: -0.039
TAF8 isoform 2 (UniProt Q7Z7C8)	inactive: -0.014
TBCC (UniProt Q15814)	inactive: -0.059
TAF9 (UniProt Q16594)	inactive: -0.018
TAF9B (UniProt Q9HBM6)	inactive: 0.032
TBL3 (UniProt Q12788)	inactive: -0.027

Fetched one by one from the entries so far:
Target	log2 fold change
TBC1D2B (UniProt Q9UPU7)	inactive: 0.006
TAOK1 (UniProt Q7L7X3)	inactive: -0.004
